Test results: publication PMC9772228, “Structure of a RecT/Redβ family recombinase in complex with a duplex intermediate of DNA annealing”
The exact form of at least one protein or probe is not confirmed. No signal at the amounts used counts as a negative. Protein sequences can lack the tags named with them.

Biological target: T1, λ-Redβ (bacteriophage lambda) (UniProt P03698)
T1 sequence (looked up, limits assumed): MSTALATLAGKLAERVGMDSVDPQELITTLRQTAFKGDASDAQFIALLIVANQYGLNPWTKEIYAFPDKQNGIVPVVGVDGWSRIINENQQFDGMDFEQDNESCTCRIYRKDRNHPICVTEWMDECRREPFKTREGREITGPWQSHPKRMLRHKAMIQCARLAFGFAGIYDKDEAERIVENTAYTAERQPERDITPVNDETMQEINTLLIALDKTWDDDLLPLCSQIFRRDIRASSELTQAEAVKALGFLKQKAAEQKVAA
Assay: EMSA
Settings: pre-annealed; EMSA: PBS pH 7.4 (or KH2PO4/10 mM MgCl2 pH 6.0), 3.6 or 5 uM protein, 25 uM nt DNA, 37 C 15 min per strand, 0.8% agarose 1x TBE; recombinant protein; label: 5'-Cy3,5'-Cy5

GCGGATGGCTTAGAGCAGAATCGCCCTGCATAGCTCGATTTTTGCGGATG / CCATCCGCAAAAATCGAGCTATGCAGGGCGATTCTGCTCTAAGCCATCCG [50-mer pre-annealed dsDNA]
binding result: no binding
